Laboratory results taken from PubChem BioAssay AID2685 (National Center for Advancing Translational Sciences (NCATS), 2010).
This is one part of the list. These are further read-outs of the screen, such as a control signal, another cell line or another target. No call is given for them. Compounds called inactive in the main read-out are mostly missing here. The note in brackets gives the kind of curve behind each potency; many fits are weak. Where a SMILES comes first, the peptide text is derived from it. The star is where a group is joined. Cbz = O=C(OCc1ccccc1)*

Test: qHTS Assay for Lipid Storage Modulators in Drosophila S3 Cells;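 as to cell number change: cells counted by Cell Tracker Red CMTPX staining in the red channel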
Details: BODIPY lipid droplet fluorescence, 18-24 h; for cell number change: measured here: cell count max response, cells fed with added oleic acid
How it was run: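 Laser-scanning cytometry quantifies lipid droplet accumulation (500–530 nm total intensity; droplet/cell object ratio) in oleic acid-fed (400 uM added) Drosophila S3 cells treated with a concentration series. 20 uM Triacsin C defined 100% inhibition.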

[1] = measured here: lipid fluorescence (Fed channel) AC50, cells fed with added oleic acid
[2] = measured here: cell number channel AC50, cells fed with added oleic acid

Row | Compound | cell number change [%] | AC50 [1] | AC50 [2]
1 | COc1ccc(-c2nnc3ccc(SC)nn23)cc1 | -0.117 | 6.51 µM [falling, single point] | –
2 | Cc1cc(NC2CCCCC2)nc(N2CCOCC2)n1 | 21.2 | 14.6 µM [rising, single point] | –
3 | CN1C(C(=O)NCc2cccc(Br)c2)CC2Cn3c(nc4cc5ccccc5cc43)C21 (centres undefined) | 42.3 | 29.1 µM [rising, single point] | –
4 | Clc1ccccc1CSc1nnc(Cn2cnc3ccccc32)n1-c1ccccc1 | 1.84 | 25.9 µM [falling, single point] | –
5 | Cc1cccc(/C=C2/Sc3ccc(C(=O)NCCN4CCCC4)cc3NC2=O)c1 | -15.6 | 0.116 µM [falling, full curve, poor fit] | –
6 | COCC(C)OC(=O)c1c(N)n(-c2ccc(OC)c(OC)c2)c2nc3ccccc3nc12 (centres undefined) | 16.4 | 2.06 µM [rising, single point] | –
7 | CCOC(=O)CSc1nc(N)c(C#N)cc1C#N | 8.24 | 0.146 µM [falling, full curve, poor fit] | –
8 | CCOC(=O)C1=C(CC)OC(N)=C(C#N)C1c1ccsc1 (centres undefined) | -0.3 | 32.6 µM [falling, partial curve, poor fit] | –
9 | Cc1ccc(O)c(C(=O)c2cc(C#N)c3nc4ccccc4n3c2)c1 | -3.97 | – | –
10 | O=C1CC(Nc2ccc(N3CCOCC3)cc2)C(=O)N1CCc1ccccc1 (centres undefined) | – | – | 2.31 µM [rising, partial curve]
11 | CCCCn1c(N)c(N(CCOC)C(=O)CSCc2cccc(C)c2)c(=O)[nH]c1=O | – | 3.26 µM [rising, single point] | –
12 | Cc1nn(-c2ccccc2)c(C)c1/C=N/NC(=O)CSc1nnc(SCc2ccc(Cl)cc2)s1 | -9.84 | 1.16 µM [falling, single point] | –
13 | O=S(=O)(Nc1cccnc1)c1ccc(C2CCCCC2)cc1 | 7.25 | 6.51 µM [falling, single point] | –
14 | COc1ccc(NC(=O)CSc2ccc(-c3cccnc3)nn2)cc1 | 27.4 | 8.91 µM [rising, partial curve, poor fit] | –
15 | CC1=CCC2C(=O)N(c3cccc(C(=O)NCc4ccccc4)c3)C(=O)C2C1 (centres undefined) | 13.5 | – | –
16 | Cc1cc(C)cc(NC(=O)CN2CCC(NC(=O)c3ccccc3F)CC2)c1 | 11 | 29.1 µM [rising, single point] | –
17 | CCOC(=O)C1=C(c2ccccc2)N=c2s/c(=C\c3cc(OC)c(OC)c(OC)c3)c(=O)n2C1c1cccs1 (centres undefined) | 20.1 | – | –
18 | CCOc1ccccc1C(=O)NCC(=O)Nc1ccc2c(c1)OCO2 | -7.84 | 2.31 µM [falling, single point] | –
19 | CC(C)C(NC(=O)C12CC3CC(CC(C3)C1)C2)C(=O)O (centres undefined) | -5.38 | – | –
20 | Cc1ccc2c(c1)c1nnc(SCC(=O)Nc3ccc(N(C)C)cc3)nc1n2CC(=O)O | 8.47 | 5.8 µM [falling, single point] | –

3 records picked at random from those above, as already listed:
Row | Compound | cell number change [%] | AC50 [1] | AC50 [2]
8 | CCOC(=O)C1=C(CC)OC(N)=C(C#N)C1c1ccsc1 (centres undefined) | -0.3 | 32.6 µM [falling, partial curve, poor fit] | –
3 | CN1C(C(=O)NCc2cccc(Br)c2)CC2Cn3c(nc4cc5ccccc5cc43)C21 (centres undefined) | 42.3 | 29.1 µM [rising, single point] | –
12 | Cc1nn(-c2ccccc2)c(C)c1/C=N/NC(=O)CSc1nnc(SCc2ccc(Cl)cc2)s1 | -9.84 | 1.16 µM [falling, single point] | –

Remaining list, next part.

Row | Compound | cell number change [%] | AC50 [1] | AC50 [2]
21 | CC(C)OC(=O)/C(=C\c1ccc2c(c1)c1ccccc1n2C)NC(=O)c1ccccc1 | 20.1 | – | –
22 | COC(=O)c1sccc1NC(=O)Nc1cc(C)ccc1OC | – | 29.1 µM [falling, single point] | 0.116 µM [falling, full curve, poor fit]
23 | CCOC(=O)N1CCN(C(=O)c2c(-c3ccccc3Cl)noc2C)CC1 | 10.9 | – | –
24 | Cc1ccc(-c2csc(NC3OC(=O)c4ccccc43)n2)cc1 (centres undefined) | 35.2 | 6.51 µM [rising, full curve] | 9.2 µM [rising, partial curve, poor fit]
25 | O=S(=O)(NCCOCC(F)(F)C(F)F)c1ccc2oc3ccccc3c2c1 | -5.78 | – | –
26 | NC(=O)c1oc2ccc(Cl)cc2c1NC(=O)CN1CCOCC1 | – | 0.731 µM [rising, single point] | 1.84 µM [rising, partial curve]
27 | CCC(CC)c1nnc(NC(=O)c2cc(C(=O)OC)cc([N+](=O)[O-])c2)s1 | 34.9 | 32.6 µM [rising, single point] | 8.2 µM [rising, partial curve]
28 | CN(C)C(CNC(=O)C1CCN(S(=O)(=O)c2cccc(C(F)(F)F)c2)CC1)c1ccccc1 (centres undefined) | 12.1 | – | –
29 | COCc1cc(C)nc(SCC[N+](C)(C)CC(=O)Nc2ccccc2)c1C#N | -3.08 | 6.51 µM [falling, single point] | 7.31 µM [falling, single point]
30 | O=C(Nc1ccc(Cl)c([N+](=O)[O-])c1)C(Sc1ccccc1)c1ccccc1 (centres undefined) | -16.7 | 29.1 µM [falling, single point] | –
31 | Cc1ccc(C(=O)NNC(=O)C(NC(=O)c2cccc(C)c2)C(C)C)cc1 (centres undefined) | -3.75 | 29.1 µM [rising, single point] | –
32 | CCS(=O)(=O)N1CCCC(C(=O)NC2CCCC2)C1 (centres undefined) | 36.3 | 32.6 µM [rising, single point] | –
33 | Cc1ccc2nsnc2c1NC(=O)c1ccccc1[N+](=O)[O-] | 41.7 | 2.91 µM [falling, partial curve] | 29.1 µM [rising, single point]
34 | Cc1ccc(S(=O)(=O)N(CCC#N)C2CCCCC2)c2nsnc12 | -0.817 | 0.146 µM [falling, full curve, poor fit] | –
35 | COc1cnc(-c2ccccn2)nc1N(C)c1ccccc1 | -21.7 | 29.1 µM [falling, single point] | –
36 | Cc1cc(C)c2oc(-c3cccc(NC(=O)c4ccc(F)cc4)c3)nc2c1 | – | 2.06 µM [rising, partial curve] | 0.517 µM [rising, full curve]
37 | COc1ccc(-c2noc(-c3ccc4c(c3)OCO4)n2)cc1 | -20.1 | 1.03 µM [falling, full curve] | –
38 | COc1ccccc1NC(=O)Cc1noc(CN(C)Cc2cccs2)n1 | 24.6 | 0.0291 µM [rising, full curve, poor fit] | –
39 | CC(C)[C@H](NC(=O)OCc1ccccc1)C(=O)N[C@@H](Cc1c[nH]c2ccccc12)C(=O)O (Cbz-Val-Trp-OH) | 14 | 1.46 µM [rising, partial curve, poor fit] | –
40 | O=C(O)COc1cccc2ccccc12 | – | 3.66 µM [falling, partial curve] | –

Row | Compound | cell number change [%] | AC50 [1] | AC50 [2]
41 | O=[N+]([O-])c1cccc(/C=N/N2CCN(Cc3ccc(Cl)cc3)CC2)c1 | 9.01 | 0.164 µM [rising, full curve, poor fit] | –
42 | COc1ccccc1C(=O)NC1CCN(C(=O)Nc2ccc(C)cc2)CC1 | 26.2 | 0.116 µM [rising, single point] | –
43 | COc1ccc(C(=O)N/N=C/c2ccc(N3CCOCC3)s2)cc1OC | 7.59 | 16.4 µM [rising, partial curve, poor fit] | –
44 | C[C@H](NS(=O)(=O)c1ccc2c(c1)OCCCO2)C(=O)N1CCN(Cc2ccc(C#N)cc2)CC1 | 22.4 | 7.31 µM [falling, partial curve, poor fit] | –
45 | COc1ccc(NS(=O)(=O)c2ccc(NS(=O)(=O)c3cccs3)cc2)c(OC)c1 | -5.24 | – | –
46 | COC(=O)c1sc2cc(=O)n(-c3cccc(C(F)(F)F)c3)nc2c1O | 40.8 | 16.4 µM [rising, single point] | 18.4 µM [rising, single point]
47 | CC(=O)OCC(=O)[C@@]1(O)CC[C@H]2[C@@H]3CCC4=CC(=O)C=C[C@]4(C)[C@H]3[C@@H](O)C[C@@]21C | -6.33 | 0.00517 µM [rising, full curve, poor fit] | –
48 | O=C(Cn1cnc2c(cnn2-c2ccc(Cl)cc2)c1=O)N1CCN(c2ccccc2)CC1 | 0.962 | 2.59 µM [falling, full curve] | –
49 | Cc1ccc(N2CC(C(=O)OCC(=O)Nc3ccc(Cl)cc3)CC2=O)cc1 (centres undefined) | -12.2 | 0.517 µM [rising, partial curve, poor fit] | –
50 | Cc1c(CCC(=O)N[C@@H](C)C(=O)O)c(=O)oc2cc3occ(-c4ccccc4)c3cc12 | 26.4 | 2.06 µM [falling, partial curve] | –
51 | CCCNC(=O)CN1CCN(S(=O)(=O)c2ccc(Br)s2)CC1 | -6.61 | – | –
52 | [N-]=[N+]=CC(=O)CNC(=O)[C@@H](Cc1ccccc1)N1C(=O)c2ccccc2C1=O | 1.61 | – | –
53 | CSc1nc(N(C)NC(=O)c2ccccc2)c2ccccc2n1 | – | 0.259 µM [rising, full curve, poor fit] | –
54 | Cc1ccc(C(=O)CCNc2ccccc2)o1 | 3.76 | 32.6 µM [falling, single point] | –
55 | O=C(Nc1nc2cc3c(cc2s1)OCO3)C1=COCCO1 | 9.56 | 0.0058 µM [rising, full curve, poor fit] | –
56 | O=C(O)COc1ccc(-c2nnn(CC(=O)O)n2)cc1 | 0.504 | 0.0731 µM [falling, full curve, poor fit] | –
57 | COc1ccc(CCn2c(C)cc(C(=O)CN3C(=O)C(=O)N(C4CCCC4)C3=O)c2C)cc1OC | – | 8.2 µM [rising, partial curve] | 7.31 µM [rising, single point]
58 | COc1ccc(C(=O)Nc2ccc(NC(=O)c3cccs3)cc2)cc1Cl | 9.03 | 0.366 µM [rising, full curve, poor fit] | –
59 | Cc1c(C(=O)O)sc(S(=O)(=O)N2CCN(C(=O)Cc3ccccc3Cl)CC2)c1C(=O)O | -6.48 | – | 0.00461 µM [falling, full curve, poor fit]
60 | CCOc1cc(S(=O)(=O)N(CC)CC)ccc1Cl | – | 0.116 µM [falling, full curve, poor fit] | –
